pIC50: −log10 of the molar value.
Assays:
Ca2+ = conditions: read-out: IC50_Literature, Ca2+; Fluo-4 signals in serotonin receptors expressing HEK293 cells; ref Röser et al., 2012; cited from earlier work
EGFR = conditions: read-out: IC50_Literature, EGFR; phospho-WB, Tyr1173-phosphorylation of EGFR in U87MG cells; ref Kobayashi et al., 2019; cited from earlier work
ERBB4 CRE = assay: ERBBprofiler barcoded CRE pathway sensor, ERBB4 co-transfected; conditions: Rattus norvegicus, PC-12, 6 h, read-out: ERBB4 CRE IC50
EGFR CRE = assay: ERBBprofiler barcoded CRE pathway sensor, EGFR co-transfected; conditions: Rattus norvegicus, PC-12, 6 h, read-out: EGFR CRE IC50
ERBB4 NFAT = assay: ERBBprofiler barcoded NFAT pathway sensor, ERBB4 co-transfected; type: cell-based, Rattus norvegicus; conditions: PC12 cells; constant EGF 30 ng/mL, EGFld 10 ng/mL, serotonin 1 μM; 6 h; barcode readout; relative IC50
EGFR NFAT = assay: ERBBprofiler barcoded NFAT pathway sensor, EGFR co-transfected; type: cell-based, Rattus norvegicus; conditions: PC12 cells; constant EGF 30 ng/mL, EGFld 10 ng/mL, serotonin 1 μM; 6 h; barcode readout; relative IC50
ERBB4 = conditions: read-out: IC50_Literature, ERBB4; phospho-WB, Tyr1284-phosphorylation of ERBB4 in primary murine cortical neurons; ref Kobayashi et al., 2019; cited from earlier work

CN1CCN(C2=Nc3cc(Cl)ccc3Nc3ccccc32)CC1 [Clozapine]
pIC50 (Ca2+): 7.10
pIC50 (EGFR): 4.33
pIC50 (ERBB4 CRE): 7.51
pIC50 (EGFR CRE): 8.08
ERBB4 NFAT IC50 (ERBB4 NFAT): no effect (EGFR, ERBB2/3, ERBB4), 0.053 µM (HTR2A)
EGFR NFAT IC50 (EGFR NFAT): no effect (EGFR, ERBB2/3, ERBB4), 0.053 µM (HTR2A)
pIC50 (ERBB4): 4.80
